Test results: patent US7803554B2, “Detection of binding factors with fluorescence polarization” (priority 2000, dated 2010)

Tested on: d(pT)18
Experiment: CE/LIFP of FITC-SSB protein probe with d(pT)18 in running buffer
Format: binding

With “FITC-SSB: single-stranded DNA binding protein labeled with FITC” the “increase in fluorescence anisotropy (DA) upon binding to the oligonucleotide” value was greater than 0.02, the fluorescence anisotropy (free probe, 25 mM disodium tetraborate pH 9.1) was 0.23 and the electrophoretic mobility (pH 9.1) was 1.07×10^−4 cm^2 V^−1 s^−1. The fluorescence anisotropy (pH 9.1) was 0.23.
